Measured values: US20090233850A1
Results are given in words; binding and its absence hold for the method and conditions named. Binding can be weak; no strength is given. Tags and fused reporters may be left off the sequences shown.

Experiments:
[1] = biological target: SIV PBj2-8 envelope glycoprotein (SIV PBj2-8); assay: ELISA, 100 ng envelope glycoprotein adsorbed on the plate, 50 nM L5, detection with polyclonal anti-CVN, BSA background subtracted
[2] = biological target: SIV PBj2-8 envelope glycoprotein (SIV PBj2-8); assay: ELISA, 100 ng adsorbed gp120, 50 nM binder, polyclonal anti-CVN detection
[3] = biological target: HIV-1 93MW959 gp120 (Clade C) (HIV-1 93MW959); assay: as above
[4] = biological target: AN1 gp120 (ancestral clade B HIV envelope) (HIV-1 (ancestral clade B)); assay: as above
[5] = biological target: HIV-1 CM235 gp120 (circulating recombinant CRF01-AE) (HIV-1 CM235); assay: as above
[6] = biological target: HIV-1 92UG21-9 gp120 (Clade A) (HIV-1 92UG21-9); assay: as above
[7] = biological target: HIV-1 93MW959 gp120 (Clade C) (HIV-1 93MW959); assay: ELISA, 100 ng gp120 adsorbed on the plate, 50 nM L5, detection with polyclonal anti-CVN, BSA background subtracted
[8] = biological target: AN1 gp120 (ancestral clade B HIV envelope) (HIV-1 (ancestral clade B)); assay: as above
[9] = biological target: HIV-1 CM235 gp120 (circulating recombinant CRF01-AE) (HIV-1 CM235); assay: as above
[10] = biological target: HIV-1 92UG21-9 gp120 (Clade A) (HIV-1 92UG21-9); assay: as above

Measured: binding

B1: L5 chimera (CVN-12p1): CVN, linker of five Gly4Ser repeats, 12p1, C-terminal hexa-histidine tag (protein)
chain: LGKFSQTCYNSAIQGSVLTSTCERTNGGYNTSSIDLNSVIENVDGSLKWQPSNFIETCRNTQLAGSSELAAECKTRAQQFVSTKINLDDHIANIDGTLKYEGSGGGGSGGGGSGGGGSGGGGSGGGGSRINNIPWSEAMMHHHHHH
binds: all assays above
